Values from PubChem BioAssay AID1224830 (NIAID, 2016).
Test: 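Host factors that control LPS-induced TNF expression in human macrophages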 (primary screen). Cell system: human THP-1 monocytic leukaemia cells, TNF dual-luciferase reporter clone, PMA-differentiated to macrophage-like cells. Knock-down reagent: siRNA pool against human genes, 50 nM. Timing: LPS for 4 h, given about 3 days after siRNA transfection. Conditions: bacterial LPS (TLR4 ligand), 10 ng/ml. Detection: 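TNF firefly reporter luminescence divided by renilla, normalised to the plate median, then turned into a robust z-score for each replicate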. Reading the numbers: TNF reporter robust z-score: higher = stronger TNF reporter response to LPS. Rule for the call: 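a well is active when its z-score exceeds 2.8 or falls below -1.5; control wells carry no call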.
The whole screen tested about 18,000 reagents; below is an unselected part. About 2,900 of them (16%) were called active. 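Calls are made per well; low scores hint the gene aids the LPS response, high scores that it dampens it.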 A number with no mark means an inactive call. Repeated entries: four replicate wells of each siRNA pool.

gene | TNF reporter robust z-score
RBM34 | -0.97
RBM34 | -0.7
RBM34 | -0.99
RBM34 | -0.88
REPS1 | -0.52
REPS1 | 1.02
REPS1 | 0.61
REPS1 | -0.09
RNASEH2B | -0.26
RNASEH2B | 0.2
RNASEH2B | -0.03
RNASEH2B | 1.14
TNFAIP1 | -0.12
TNFAIP1 | 0.45
TNFAIP1 | -0.09
TNFAIP1 | -0.18
ZNF37A | 0.34
ZNF37A | 1.02
ZNF37A | 0.84
ZNF37A | 0.09
TBX20 | 0.25
TBX20 | 1.42
TBX20 | 0.28
TBX20 | 0.79
CD22 | 0.47
CD22 | 0.77
CD22 | 1.17
CD22 | 0.13
DNAJB1 | 1.03
DNAJB1 | -0.16
DNAJB1 | 1.51
DNAJB1 | 0.38
CDKAL1 | 0
CDKAL1 | -0.37
CDKAL1 | -0.66
CDKAL1 | -0.17
C19orf25 | 1.91
C19orf25 | 1.6
C19orf25 | 0.77
C19orf25 | 1.28
S100A13 | 0.27
S100A13 | 1.02
S100A13 | 0.07
S100A13 | 0.7
CNGB1 | 1.06
CNGB1 | -0.04
CNGB1 | -1.29
CNGB1 | -0.71

12 neighbouring records already listed:
gene | TNF reporter robust z-score
RNASEH2B | -0.03
RNASEH2B | 1.14
TNFAIP1 | -0.12
TNFAIP1 | 0.45
TNFAIP1 | -0.09
TNFAIP1 | -0.18
ZNF37A | 0.34
ZNF37A | 1.02
ZNF37A | 0.84
ZNF37A | 0.09
TBX20 | 0.25
TBX20 | 1.42

More records:
gene | TNF reporter robust z-score
CTNND2 | 0.5
CTNND2 | 0.7
CTNND2 | 0.25
CTNND2 | 0.6
TUBB4B | 0.67
TUBB4B | 1.68
TUBB4B | 2.05
TUBB4B | 0.72
PROK1 | -1.6 (active)
PROK1 | -1.24
PROK1 | -1.36
PROK1 | -0.91
GNRH2 | -1.04
GNRH2 | -1.4
GNRH2 | -0.13
GNRH2 | -1.22
HPD | -1.35
HPD | -0.87
HPD | -0.78
HPD | -0.94
SLC5A2 | -0.23
SLC5A2 | 0.93
SLC5A2 | 0.63
SLC5A2 | 1.86
CSN1S1 | -1.15
CSN1S1 | 0.13
CSN1S1 | -0.67
CSN1S1 | -0.84
ANGPT4 | -0.13
ANGPT4 | 0.99
ANGPT4 | 0.48
ANGPT4 | 0.61
MCOLN1 | 0.54
MCOLN1 | -0.36
MCOLN1 | 0.66
MCOLN1 | 2.69
TMEM82 | 1.19
TMEM82 | 0.25
TMEM82 | 0.8
TMEM82 | 0.03
YIPF7 | -1.45
YIPF7 | -0.99
YIPF7 | -0.62
YIPF7 | -0.66
GTF2A2 | -0.81
GTF2A2 | 0.75
GTF2A2 | 0.5
GTF2A2 | 0.22
TRAF6 | -0.68
TRAF6 | 0.62
TRAF6 | -0.52
TRAF6 | 0.65
ITGB6 | -0.32
ITGB6 | -0.49
ITGB6 | -1.12
ITGB6 | 1.04
IFT172 | -0.23
IFT172 | 0.5
IFT172 | -0.69
IFT172 | -0.1
DLGAP1-AS1 | -0.25
DLGAP1-AS1 | -0.35
DLGAP1-AS1 | -0.17
DLGAP1-AS1 | -0.61
